Some of these results come from one statement about several compounds together. Some compounds share one range, which may span the group rather than tell each member.
Target: T1, ER-β Receptor (Homo sapiens, UniProt Q92731)
T1 construct: purchased PanVera
Experiment: competition ER binding assay (3H-Estradiol), ER-β
Details: approximately; Ki from IC50 by Cheng-Prusoff; read-out: binding affinities (Ki) to the ER-β subtype

The chains behind the UniProt entries cited, without tags or fusion partners.
UniProt Q92731, whole entry: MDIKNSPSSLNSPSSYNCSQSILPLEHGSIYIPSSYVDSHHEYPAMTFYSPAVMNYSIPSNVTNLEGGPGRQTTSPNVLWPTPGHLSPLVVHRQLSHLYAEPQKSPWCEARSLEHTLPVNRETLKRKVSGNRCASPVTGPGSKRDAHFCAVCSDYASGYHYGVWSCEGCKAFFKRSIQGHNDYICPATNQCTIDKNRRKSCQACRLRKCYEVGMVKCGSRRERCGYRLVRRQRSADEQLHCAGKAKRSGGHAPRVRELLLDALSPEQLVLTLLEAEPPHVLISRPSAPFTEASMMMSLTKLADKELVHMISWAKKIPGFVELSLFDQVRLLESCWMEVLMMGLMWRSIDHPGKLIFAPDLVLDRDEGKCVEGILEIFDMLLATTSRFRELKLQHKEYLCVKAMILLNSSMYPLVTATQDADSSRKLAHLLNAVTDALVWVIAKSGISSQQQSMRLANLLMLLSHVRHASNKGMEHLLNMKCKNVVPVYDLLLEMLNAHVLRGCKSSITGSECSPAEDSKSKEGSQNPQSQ

N#CCc1cc(O)cc2c1O[C@@H](c1ccc(O)cc1)[C@H]1CC(F)(F)C[C@@H]21 (stereo in doubt) [Example 10, [2,2-Difluoro-8-hydroxy-4-(4-hydroxy-phenyl)-1,2,3,3a,4,9b-hexahydro-cyclopenta[c]chromen-6-yl]-acetonitrile]
Ki: 0.3 to 120 nM

N#Cc1cc(O)cc2c1O[C@@H](c1ccc(O)cc1)[C@H]1CC(F)(F)C[C@@H]21 (stereo in doubt) [Example 7, 2,2-Difluoro-8-hydroxy-4-(4-hydroxy-phenyl)-1,2,3,3a,4,9b-hexahydro-cyclopenta[c]chromene-6-carbonitrile]
Ki: 0.3 to 120 nM

Oc1ccc([C@@H]2Oc3c(Br)cc(O)cc3[C@@H]3CC(F)(F)C[C@@H]32)cc1 (stereo in doubt) [Example 6, 6-Bromo-2,2-difluoro-4-(4-hydroxy-phenyl)-1,2,3,3a,4,9b-hexahydro-cyclopenta[c]chromen-8-ol]
Ki: 0.3 to 120 nM

OCc1cc(O)cc2c1O[C@H](c1ccc(O)cc1)[C@@H]1CC(F)(F)C[C@H]21 (stereo in doubt) [Example 11, 2,2-Difluoro-4-(4-hydroxy-phenyl)-6-hydroxymethyl-1,2,3,3a,4,9b-hexahydro-cyclopenta[c]chromen-8-ol]
Ki: 0.3 to 120 nM

Cc1cc(O)cc2c1O[C@H](c1ccc(O)cc1)[C@@H]1CC(F)(F)C[C@H]21 (relative stereo) [Example 3, 2,2-Difluoro-4-(4-hydroxy-phenyl)-6-methyl-1,2,3,3a,4,9b-hexahydro-cyclopenta[c]chromen-8-ol]
Ki: 0.3 to 120 nM

C=Cc1cc(O)cc2c1O[C@@H](c1ccc(O)cc1)[C@H]1CC(F)(F)C[C@@H]21 (stereo in doubt) [Example 8, 2,2-Difluoro-4-(4-hydroxy-phenyl)-6-vinyl-1,2,3,3a,4,9b-hexahydro-cyclopenta[c]chromen-8-ol]
Ki: 0.3 to 120 nM

COCc1cc(O)cc2c1O[C@@H](c1ccc(O)cc1)[C@H]1CC(=O)C[C@@H]21 (stereo in doubt) [Example 2, 8-Hydroxy-4-(4-hydroxy-phenyl)-6-methoxymethyl-1,3a,4,9b-tetrahydro-3H-cyclopenta[c]chromen-2-one]
Ki: 0.3 to 120 nM

Cc1cc(O)cc2c1O[C@@H](c1ccc(O)cc1)[C@H]1CC(=O)C[C@@H]21 (stereo in doubt) [Example 1, 8-Hydroxy-4-(4-hydroxy-phenyl)-6-methyl-1,3a,4,9b-tetrahydro-3H-cyclopenta[c]chromen-2-one]
Ki: 0.3 to 120 nM

Oc1ccc([C@@H]2Oc3c(O)cc(O)cc3[C@@H]3CC(F)(F)C[C@@H]32)cc1 (stereo in doubt) [Example 9, 2,2-Difluoro-4-(4-hydroxy-phenyl)-1,2,3,3a,4,9b-hexahydro-cyclopenta[c]chromene-6,8-diol]
Ki: 0.3 to 120 nM

From US7354951B2, “Substituted benzopyrans as selective estrogen receptor-beta agonists” (Eli Lilly and Company, priority 2005, dated 2008)
